Assay results from the supplement of paper PMC6078165.
The reference is the same well before dosing, and untreated signal decays as well.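 Labels refer to human fibroblasts, largely primary: uterine (C12385, HUF), lung (H6013), bone (Hs27A), adrenal (HADF), skin (WS1), plus mammary HMF and breast cancer-associated Hs343T. Cancer lines are basal-like or mesenchymal-like triple-negative breast cancer. The paper counts as hits responses shifting over 3x the replicate standard deviation. The tissue of the other fibroblasts is not given here.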

Test system: Hs578T
Assay: relative JC-1 red fluorescence (viability) vs pre-drug, coculture with fibroblast (fraction); higher = more viable cancer cells
Description: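 JC-1 labelled TNBC cells cocultured 1:1 (1,500 cells each) with CellTrace Violet stained primary or stromal fibroblasts in 384-well plates in FluoroBrite medium, treated with one of 42 anticancer drugs at 0.1, 1, 10 or 100 uM. JC-1 red fluorescence (mitochondrial integrity in cancer cells only) was read by plate reader every 8 h for 72 h. Values are normalised to each well's pre-drug value. The stock of one drug was tenfold lower, so its dose labels may be too high.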

CO[C@@]12[C@H](COC(N)=O)C3=C(C(=O)C(C)=C(N)C3=O)N1C[C@@H]1N[C@@H]12 [Mitomycin C]
relative JC-1 red fluorescence
Conditions	8 h	16 h	24 h	32 h	40 h	48 h	56 h	64 h	72 h
10 µM	0.94	0.81	0.717	0.662	0.596	0.55	0.507	0.463	0.45
100 µM	0.796	0.573	0.503	0.495	0.464	0.44	0.448	0.427	0.431

relative JC-1 red fluorescence
Conditions	8 h	16 h	24 h	32 h	40 h	48 h	56 h	64 h	72 h
10 µM, coculture fibroblast: C12385	0.842	0.77	0.689	0.609	0.559	0.527	0.493	0.483	0.475
10 µM, coculture fibroblast: H6013	0.862	0.792	0.712	0.663	0.596	0.567	0.528	0.51	0.475
10 µM, coculture fibroblast: H6019	0.775	0.626	0.567	0.47	0.397	0.355	0.326	0.308	0.297
10 µM, coculture fibroblast: H6076	0.935	0.8	0.7274	0.694	0.631	0.6	0.545	0.508	0.482
10 µM, coculture fibroblast: H6231	0.917	0.812	0.735	0.7031	0.641	0.608	0.563	0.547	0.53
10 µM, coculture fibroblast: HADF	0.916	0.861	0.788	0.717	0.651	0.605	0.563	0.524	0.5
10 µM, coculture fibroblast: HCFa	0.8767	0.777	0.695	0.63	0.56	0.547	0.519	0.505	0.476
10 µM, coculture fibroblast: HCPF	0.9347	0.8449	0.7494	0.7107	0.6411	0.6099	0.5866	0.551	0.5403
10 µM, coculture fibroblast: HHSteC	0.911	0.805	0.735	0.697	0.63	0.597	0.565	0.529	0.493
10 µM, coculture fibroblast: HMF	0.907	0.82	0.748	0.725	0.672	0.65	0.604	0.589	0.567
10 µM, coculture fibroblast: HPFa	0.9486	0.839	0.784	0.734	0.693	0.68	0.643	0.627	0.596
10 µM, coculture fibroblast: HUF	0.857	0.757	0.692	0.593	0.534	0.51	0.472	0.462	0.452
10 µM, coculture fibroblast: Hs27A	0.879	0.825	0.78	0.742	0.697	0.682	0.653	0.641	0.613
10 µM, coculture fibroblast: Hs343T	0.957	0.839	0.725	0.684	0.605	0.5652	0.504	0.465	0.433
10 µM, coculture fibroblast: WS1	0.84	0.7	0.646	0.548	0.478	0.455	0.412	0.405	0.398
100 µM, coculture fibroblast: C12385	0.681	0.543	0.531	0.441	0.413	0.406	0.402	0.413	0.418
100 µM, coculture fibroblast: H6013	0.74	0.612	0.546	0.512	0.498	0.491	0.48	0.478	0.459
100 µM, coculture fibroblast: H6019	0.649	0.4984	0.51	0.428	0.413	0.406	0.395	0.392	0.385
100 µM, coculture fibroblast: H6076	0.828	0.609	0.54	0.514	0.4692	0.4692	0.467	0.465	0.466
100 µM, coculture fibroblast: H6231	0.806	0.559	0.4625	0.457	0.416	0.4119	0.401	0.392	0.398
100 µM, coculture fibroblast: HADF	0.819	0.697	0.626	0.587	0.567	0.559	0.539	0.536	0.505
100 µM, coculture fibroblast: HCFa	0.772	0.639	0.589	0.571	0.578	0.579	0.552	0.552	0.525
100 µM, coculture fibroblast: HCPF	0.836	0.5992	0.524	0.508	0.465	0.458	0.471	0.446	0.44
100 µM, coculture fibroblast: HHSteC	0.7755	0.6103	0.539	0.4999	0.484	0.47	0.466	0.456	0.44
100 µM, coculture fibroblast: HMF	0.8185	0.60837	0.508	0.489	0.45	0.434	0.434	0.429	0.435
100 µM, coculture fibroblast: HPFa	0.784	0.654	0.609	0.582	0.586	0.581	0.562	0.557	0.535
100 µM, coculture fibroblast: HUF	0.728	0.562	0.553	0.48	0.453	0.44	0.433	0.441	0.442
100 µM, coculture fibroblast: Hs27A	0.761	0.65	0.5939	0.565	0.536	0.555	0.544	0.545	0.516
100 µM, coculture fibroblast: Hs343T	0.831	0.617	0.519	0.505	0.46	0.457	0.46	0.459	0.46
100 µM, coculture fibroblast: WS1	0.686	0.556	0.554	0.476	0.449	0.446	0.44	0.454	0.456
